Measured values: patent US7537910B2 (Discoverx Corp., priority 2005, dated 2009)

Assay: peptide made by a vendor
Conditions: late stage modification step

“Ac-CSLAVVLQRRDWENPGVTQLNRLAAHPPFASWRNSEEARTDCPSQQL” gave a step yield of 50%.
